Source: PMC11231609
Results are given in words; binding and its absence hold for the method and conditions named. Binding seen in cells or lysates may run through a third protein. A yes stands for co-enrichment or nearness to the bait. Other partners may have been found.

Sequences of proteins named here, by UniProt entry; tags and fusion partners are left off. Residues count along the entry.
UniProt Q16602, residues 23-461: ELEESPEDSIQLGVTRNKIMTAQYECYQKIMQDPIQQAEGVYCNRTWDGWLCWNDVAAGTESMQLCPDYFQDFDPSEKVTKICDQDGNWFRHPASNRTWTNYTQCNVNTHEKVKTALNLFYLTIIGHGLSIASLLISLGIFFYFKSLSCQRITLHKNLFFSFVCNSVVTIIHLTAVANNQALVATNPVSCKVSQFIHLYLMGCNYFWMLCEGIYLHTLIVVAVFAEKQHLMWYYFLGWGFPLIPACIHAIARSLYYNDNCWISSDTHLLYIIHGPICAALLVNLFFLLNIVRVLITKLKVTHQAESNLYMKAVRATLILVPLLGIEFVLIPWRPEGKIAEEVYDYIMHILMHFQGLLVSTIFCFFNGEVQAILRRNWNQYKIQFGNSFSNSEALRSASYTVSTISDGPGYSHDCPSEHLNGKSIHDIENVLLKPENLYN
UniProt Q13555: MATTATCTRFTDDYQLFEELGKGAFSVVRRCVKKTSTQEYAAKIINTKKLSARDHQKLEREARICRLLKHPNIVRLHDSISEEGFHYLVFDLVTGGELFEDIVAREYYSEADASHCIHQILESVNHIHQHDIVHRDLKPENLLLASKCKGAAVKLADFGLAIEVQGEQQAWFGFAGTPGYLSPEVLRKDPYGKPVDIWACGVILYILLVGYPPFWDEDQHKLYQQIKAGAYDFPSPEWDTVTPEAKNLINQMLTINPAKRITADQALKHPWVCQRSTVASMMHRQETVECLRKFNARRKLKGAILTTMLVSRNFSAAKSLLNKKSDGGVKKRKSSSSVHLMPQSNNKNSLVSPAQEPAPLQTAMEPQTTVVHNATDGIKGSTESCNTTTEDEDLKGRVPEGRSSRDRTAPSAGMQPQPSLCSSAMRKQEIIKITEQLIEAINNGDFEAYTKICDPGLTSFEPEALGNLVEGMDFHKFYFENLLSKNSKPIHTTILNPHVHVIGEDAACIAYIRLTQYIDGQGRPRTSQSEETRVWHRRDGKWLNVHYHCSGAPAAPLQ
UniProt O95816: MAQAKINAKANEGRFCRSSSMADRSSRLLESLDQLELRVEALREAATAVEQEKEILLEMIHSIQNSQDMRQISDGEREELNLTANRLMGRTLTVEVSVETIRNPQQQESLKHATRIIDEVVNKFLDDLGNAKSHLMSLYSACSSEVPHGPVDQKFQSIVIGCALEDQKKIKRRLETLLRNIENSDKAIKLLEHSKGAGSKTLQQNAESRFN
UniProt Q9Y5S2: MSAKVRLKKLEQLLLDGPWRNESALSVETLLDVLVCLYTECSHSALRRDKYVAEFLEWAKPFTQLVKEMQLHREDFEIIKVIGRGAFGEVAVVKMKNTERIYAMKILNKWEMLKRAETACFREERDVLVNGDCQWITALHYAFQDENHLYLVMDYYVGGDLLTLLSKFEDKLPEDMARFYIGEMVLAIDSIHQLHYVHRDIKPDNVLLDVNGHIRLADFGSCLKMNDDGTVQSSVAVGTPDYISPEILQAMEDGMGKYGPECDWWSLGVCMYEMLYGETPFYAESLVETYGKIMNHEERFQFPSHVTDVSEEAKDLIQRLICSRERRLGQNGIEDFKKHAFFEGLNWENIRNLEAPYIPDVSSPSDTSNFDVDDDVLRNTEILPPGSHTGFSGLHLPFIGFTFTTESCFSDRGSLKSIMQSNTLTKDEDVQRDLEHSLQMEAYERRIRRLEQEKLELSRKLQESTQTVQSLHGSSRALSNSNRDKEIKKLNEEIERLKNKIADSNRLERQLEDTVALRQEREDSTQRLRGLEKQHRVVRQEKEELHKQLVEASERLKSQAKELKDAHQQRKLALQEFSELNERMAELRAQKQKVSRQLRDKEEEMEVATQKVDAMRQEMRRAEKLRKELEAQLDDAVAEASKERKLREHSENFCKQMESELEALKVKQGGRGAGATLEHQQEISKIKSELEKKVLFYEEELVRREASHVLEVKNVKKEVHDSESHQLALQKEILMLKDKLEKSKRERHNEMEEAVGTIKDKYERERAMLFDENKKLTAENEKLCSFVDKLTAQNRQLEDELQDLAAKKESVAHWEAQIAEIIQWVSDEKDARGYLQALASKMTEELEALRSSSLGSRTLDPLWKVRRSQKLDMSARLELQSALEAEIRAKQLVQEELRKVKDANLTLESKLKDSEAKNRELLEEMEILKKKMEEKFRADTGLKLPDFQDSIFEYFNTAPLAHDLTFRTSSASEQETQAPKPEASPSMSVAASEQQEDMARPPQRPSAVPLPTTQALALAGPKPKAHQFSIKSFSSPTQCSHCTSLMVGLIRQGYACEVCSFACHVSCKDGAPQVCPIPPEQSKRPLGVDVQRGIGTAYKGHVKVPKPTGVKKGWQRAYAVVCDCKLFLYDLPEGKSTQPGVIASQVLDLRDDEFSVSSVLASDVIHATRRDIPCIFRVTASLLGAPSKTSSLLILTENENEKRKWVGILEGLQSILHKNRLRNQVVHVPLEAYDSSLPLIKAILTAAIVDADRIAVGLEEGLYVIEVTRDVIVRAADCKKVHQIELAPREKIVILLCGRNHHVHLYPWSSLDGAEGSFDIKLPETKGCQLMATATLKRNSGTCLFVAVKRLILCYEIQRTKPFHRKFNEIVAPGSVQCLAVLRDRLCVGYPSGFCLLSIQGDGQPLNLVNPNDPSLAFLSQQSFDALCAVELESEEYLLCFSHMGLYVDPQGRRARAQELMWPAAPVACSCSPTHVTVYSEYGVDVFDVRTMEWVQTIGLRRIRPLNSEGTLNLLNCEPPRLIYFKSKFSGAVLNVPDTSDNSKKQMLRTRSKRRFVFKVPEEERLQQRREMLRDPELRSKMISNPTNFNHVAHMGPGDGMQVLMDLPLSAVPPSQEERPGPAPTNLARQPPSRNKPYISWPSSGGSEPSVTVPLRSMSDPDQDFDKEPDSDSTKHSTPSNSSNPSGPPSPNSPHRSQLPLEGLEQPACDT
UniProt Q5VT25: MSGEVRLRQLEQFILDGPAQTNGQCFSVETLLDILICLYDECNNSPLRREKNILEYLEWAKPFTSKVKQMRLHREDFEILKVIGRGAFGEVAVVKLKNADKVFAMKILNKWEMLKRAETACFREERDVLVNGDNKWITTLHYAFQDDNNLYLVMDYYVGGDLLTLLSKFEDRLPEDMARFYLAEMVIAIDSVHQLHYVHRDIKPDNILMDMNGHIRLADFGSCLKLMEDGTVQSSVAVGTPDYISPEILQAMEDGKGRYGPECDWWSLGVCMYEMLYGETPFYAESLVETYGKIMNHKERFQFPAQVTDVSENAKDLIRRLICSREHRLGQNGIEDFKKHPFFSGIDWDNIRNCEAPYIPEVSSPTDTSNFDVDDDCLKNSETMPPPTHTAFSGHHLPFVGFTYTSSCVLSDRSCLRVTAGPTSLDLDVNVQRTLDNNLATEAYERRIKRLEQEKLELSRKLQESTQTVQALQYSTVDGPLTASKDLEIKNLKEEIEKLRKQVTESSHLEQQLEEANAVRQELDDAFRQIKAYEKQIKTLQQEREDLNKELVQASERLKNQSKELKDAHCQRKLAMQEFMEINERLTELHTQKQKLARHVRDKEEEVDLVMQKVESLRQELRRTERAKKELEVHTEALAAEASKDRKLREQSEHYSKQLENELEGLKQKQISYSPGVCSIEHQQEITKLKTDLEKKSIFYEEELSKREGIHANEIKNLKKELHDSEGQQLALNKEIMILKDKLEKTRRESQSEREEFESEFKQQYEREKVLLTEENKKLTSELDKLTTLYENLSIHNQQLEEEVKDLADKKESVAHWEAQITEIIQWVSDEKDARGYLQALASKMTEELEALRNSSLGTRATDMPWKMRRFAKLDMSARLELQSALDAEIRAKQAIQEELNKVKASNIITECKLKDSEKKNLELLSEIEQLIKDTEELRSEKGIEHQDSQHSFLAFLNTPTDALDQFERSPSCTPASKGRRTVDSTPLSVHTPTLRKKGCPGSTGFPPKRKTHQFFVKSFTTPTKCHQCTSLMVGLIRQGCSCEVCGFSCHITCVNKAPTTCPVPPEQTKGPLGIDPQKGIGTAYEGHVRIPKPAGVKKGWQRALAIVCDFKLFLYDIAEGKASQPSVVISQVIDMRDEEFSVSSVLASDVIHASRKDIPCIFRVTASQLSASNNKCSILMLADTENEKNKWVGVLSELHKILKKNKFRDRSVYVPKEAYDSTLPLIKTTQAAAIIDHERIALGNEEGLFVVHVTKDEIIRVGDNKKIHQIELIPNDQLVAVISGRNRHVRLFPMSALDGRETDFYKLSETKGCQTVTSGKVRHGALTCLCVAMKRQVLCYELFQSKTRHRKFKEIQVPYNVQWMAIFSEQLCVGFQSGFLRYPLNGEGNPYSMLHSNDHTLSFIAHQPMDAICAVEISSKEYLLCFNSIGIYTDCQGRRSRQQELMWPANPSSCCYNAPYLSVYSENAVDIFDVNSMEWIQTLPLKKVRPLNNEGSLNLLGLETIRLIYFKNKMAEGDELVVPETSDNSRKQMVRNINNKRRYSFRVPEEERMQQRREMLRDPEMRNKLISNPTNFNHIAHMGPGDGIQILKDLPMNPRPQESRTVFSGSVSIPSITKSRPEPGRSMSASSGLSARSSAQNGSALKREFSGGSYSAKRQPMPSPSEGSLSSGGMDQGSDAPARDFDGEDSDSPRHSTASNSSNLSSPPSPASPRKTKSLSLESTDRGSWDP
UniProt Q13557: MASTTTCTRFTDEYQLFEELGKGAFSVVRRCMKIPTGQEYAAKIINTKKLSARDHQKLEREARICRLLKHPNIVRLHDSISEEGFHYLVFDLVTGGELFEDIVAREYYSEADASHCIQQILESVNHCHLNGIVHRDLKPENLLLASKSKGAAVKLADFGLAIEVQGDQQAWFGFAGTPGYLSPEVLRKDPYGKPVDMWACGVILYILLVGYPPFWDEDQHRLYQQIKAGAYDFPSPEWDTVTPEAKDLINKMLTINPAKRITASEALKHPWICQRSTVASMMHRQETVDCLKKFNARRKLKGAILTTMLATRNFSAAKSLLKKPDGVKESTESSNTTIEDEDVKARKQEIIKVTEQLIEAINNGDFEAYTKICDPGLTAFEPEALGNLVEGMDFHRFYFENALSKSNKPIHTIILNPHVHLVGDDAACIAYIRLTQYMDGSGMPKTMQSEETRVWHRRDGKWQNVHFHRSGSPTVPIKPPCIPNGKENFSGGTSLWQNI

Target: calcitonin receptor-like receptor (human (endogenous in HDLEC)) (UniProt Q16602)
Assay: affinity purification with mass spectrometry; IP of endogenous CLR from precleared HDLEC RIPA lysate (600 ug protein) with rabbit anti-human CLR immune serum LN-1436, protein G magnetic beads, 4 C, washes in 50 mM Tris pH 7.4, 150 mM NaCl without detergent; on-bead digestion, label-free quantitative nano LC-MS/MS; control IP with preimmune serum of the same rabbit; four independent experiments

binding | Molecule
binds | ADAMTS like 2 (protein, UniProt Q86TH1 23-951) DTVSTGSTDNSPTSNSLEGGTDATAFWWGEWTKWTACSRSCGGGVTSQERHCLQQRRKSVPGPGNRTCTGTSKRYQLCRVQECPPDGRSFREEQCVSFNSHVYNGRTHQWKPLYPDDYVHISSKPCDLHCTTVDGQRQLMVPARDGTSCKLTDLRGVCVSGKCEPIGCDGVLFSTHTLDKCGICQGDGSSCTHVTGNYRKGNAHLGYSLVTHIPAGARDIQIVERKKSADVLALADEAGYYFFNGNYKVDSPKNFNIAGTVVKYRRPMDVYETGIEYIVAQGPTNQGLNVMVWNQNGKSPSITFEYTLLQPPHESRPQPIYYGFSESAESQGLDGAGLMGFVPHNGSLYGQASSERLGLDNRLFGHPGLDMELGPSQGQETNEVCEQAGGGACEGPPRGKGFRDRNVTGTPLTGDKDDEEVDTHFASQEFFSANAISDQLLGAGSDLKDFTLNETVNSIFAQGAPRSSLAESFFVDYEENEGAGPYLLNGSYLELSSDRVANSSSEAPFPNVSTSLLTSAGNRTHKARTRPKARKQGVSPADMYRWKLSSHEPCSATCTTGVMSAYAMCVRYDGVEVDDSYCDALTRPEPVHEFCAGRECQPRWETSSWSECSRTCGEGYQFRVVRCWKMLSPGFDSSVYSDLCEAAEAVRPEERKTCRNPACGPQWEMSEWSECTAKCGERSVVTRDIRCSEDEKLCDPNTRPVGEKNCTGPPCDRQWTVSDWGPCSGSCGQGRTIRHVYCKTSDGRVVPESQCQMETKPLAIHPCGDKNCPAHWLAQDWERCNTTCGRGVKKRLVLCMELANGKPQTRSGPECGLAKKPPEESTCFERPCFKWYTSPWSECTKTCGVGVRMRDVKCYQGTDIVRGCDPLVKPVGRQACDLQPCPTEPPDDSCQDQPGTNCALAIKVNLCGHWYYSKACCRSCRPPHS
binds | pantothenate kinase 4 (protein, UniProt Q9NVE7 1-773) MAECGASGSGSSGDSLDKSITLPPDEIFRNLENAKRFAIDIGGSLTKLAYYSTVQHKVAKVRSFDHSGKDTEREHEPPYEISVQEEITARLHFIKFENTYIEACLDFIKDHLVNTETKVIQATGGGAYKFKDLIEEKLRLKVDKEDVMTCLIKGCNFVLKNIPHEAFVYQKDSDPEFRFQTNHPHIFPYLLVNIGSGVSIVKVETEDRFEWVGGSSIGGGTFWGLGALLTKTKKFDELLHLASRGQHSNVDMLVRDVYGGAHQTLGLSGNLIASSFGKSATADQEFSKEDMAKSLLHMISNDIGQLACLHARLHSLDRVYFGGFFIRGHPVTMRTITYSINFFSKGEVQALFLRHEGYLGAIGAFLKGAEQDNPNQYSWGENYAGSSGLMSASPELGPAQRARSGTFDLLEMDRLERPLVDLPLLLDPPSYVPDTVDLTDDALARKYWLTCFEEALDGVVKRAVASQPDSVDAAERAEKFRQKYWNKLQTLRQQPFAYGTLTVRSLLDTREHCLNEFNFPDPYSKVKQRENGVALRCFPGVVRSLDALGWEERQLALVKGLLAGNVFDWGAKAVSAVLESDPYFGFEEAKRKLQERPWLVDSYSEWLQRLKGPPHKCALIFADNSGIDIILGVFPFVRELLLRGTEVILACNSGPALNDVTHSESLIVAERIAGMDPVVHSALQEERLLLVQTGSSSPCLDLSRLDKGLAALVRERGADLVVIEGMGRAVHTNYHAALRCESLKLAVIKNAWLAERLGGRLFSVIFKYEVPAE
binds | ER-Golgi intermediate compartment (ERGIC) marker 53 (protein, UniProt P49257 31-510) DGVGGDPAVALPHRRFEYKYSFKGPHLVQSDGTVPFWAHAGNAIPSSDQIRVAPSLKSQRGSVWTKTKAAFENWEVEVTFRVTGRGRIGADGLAIWYAENQGLEGPVFGSADLWNGVGIFFDSFDNDGKKNNPAIVIIGNNGQIHYDHQNDGASQALASCQRDFRNKPYPVRAKITYYQNTLTVMINNGFTPDKNDYEFCAKVENMIIPAQGHFGISAATGGLADDHDVLSFLTFQLTEPGKEPPTPDKEISEKEKEKYQEEFEHFQQELDKKKEEFQKGHPDLQGQPAEEIFESVGDRELRQVFEGQNRIHLEIKQLNRQLDMILDEQRRYVSSLTEEISKRGAGMPGQHGQITQQELDTVVKTQHEILRQVNEMKNSMSETVRLVSGMQHPGSAGGVYETTQHFIDIKEHLHIVKRDIDNLVQRNMPSNEKPKCPELPPFPSCLSTVHFIIFVVVQTVLFIGYIMYRSQQEAAAKKFF

The remaining lines, values behind:

Molecule | binding
filamin A-interacting protein 1 like (protein, UniProt Q4L180 1-1135) MRSRGSDTEGSAQKKFPRHTKGHSFQGPKNMKHRQQDKDSPSESDVILPCPKAEKPHSGNGHQAEDLSRDDLLFLLSILEGELQARDEVIGILKAEKMDLALLEAQYGFVTPKKVLEALQRDAFQAKSTPWQEDIYEKPMNELDKVVEKHKESYRRILGQLLVAEKSRRQTILELEEEKRKHKEYMEKSDEFICLLEQECERLKKLIDQEIKSQEEKEQEKEKRVTTLKEELTKLKSFALMVVDEQQRLTAQLTLQRQKIQELTTNAKETHTKLALAEARVQEEEQKATRLEKELQTQTTKFHQDQDTIMAKLTNEDSQNRQLQQKLAALSRQIDELEETNRSLRKAEEELQDIKEKISKGEYGNAGIMAEVEELRKRVLDMEGKDEELIKMEEQCRDLNKRLERETLQSKDFKLEVEKLSKRIMALEKLEDAFNKSKQECYSLKCNLEKERMTTKQLSQELESLKVRIKELEAIESRLEKTEFTLKEDLTKLKTLTVMFVDERKTMSEKLKKTEDKLQAASSQLQVEQNKVTTVTEKLIEETKRALKSKTDVEEKMYSVTKERDDLKNKLKAEEEKGNDLLSRVNMLKNRLQSLEAIEKDFLKNKLNQDSGKSTTALHQENNKIKELSQEVERLKLKLKDMKAIEDDLMKTEDEYETLERRYANERDKAQFLSKELEHVKMELAKYKLAEKTETSHEQWLFKRLQEEEAKSGHLSREVDALKEKIHEYMATEDLICHLQGDHSVLQKKLNQQENRNRDLGREIENLTKELERYRHFSKSLRPSLNGRRISDPQVFSKEVQTEAVDNEPPDYKSLIPLERAVINGQLYEESENQDEDPNDEGSVLSFKCSQSTPCPVNRKLWIPWMKSKEGHLQNGKMQTKPNANFVQPGDLVLSHTPGQPLHIKVTPDHVQNTATLEITSPTTESPHSYTSTAVIPNCGTPKQRITILQNASITPVKSKTSTEDLMNLEQGMSPITMATFARAQTPESCGSLTPERTMSPIQVLAVTGSASSPEQGRSPEPTEISAKHAIFRVSPDRQSSWQFQRSNSNSSSVITTEDNKIHIHLGSPYMQAVASPVRPASPSAPLQDNRTQGLINGALNKTTNKVTSSITITPTATPLPRQSQITVEPLLLPH | binds
iron regulatory protein 1 (protein, UniProt P21399 1-889) MSNPFAHLAEPLDPVQPGKKFFNLNKLEDSRYGRLPFSIRVLLEAAIRNCDEFLVKKQDIENILHWNVTQHKNIEVPFKPARVILQDFTGVPAVVDFAAMRDAVKKLGGDPEKINPVCPADLVIDHSIQVDFNRRADSLQKNQDLEFERNRERFEFLKWGSQAFHNMRIIPPGSGIIHQVNLEYLARVVFDQDGYYYPDSLVGTDSHTTMIDGLGILGWGVGGIEAEAVMLGQPISMVLPQVIGYRLMGKPHPLVTSTDIVLTITKHLRQVGVVGKFVEFFGPGVAQLSIADRATIANMCPEYGATAAFFPVDEVSITYLVQTGRDEEKLKYIKKYLQAVGMFRDFNDPSQDPDFTQVVELDLKTVVPCCSGPKRPQDKVAVSDMKKDFESCLGAKQGFKGFQVAPEHHNDHKTFIYDNTEFTLAHGSVVIAAITSCTNTSNPSVMLGAGLLAKKAVDAGLNVMPYIKTSLSPGSGVVTYYLQESGVMPYLSQLGFDVVGYGCMTCIGNSGPLPEPVVEAITQGDLVAVGVLSGNRNFEGRVHPNTRANYLASPPLVIAYAIAGTIRIDFEKEPLGVNAKGQQVFLKDIWPTRDEIQAVERQYVIPGMFKEVYQKIETVNESWNALATPSDKLFFWNSKSTYIKSPPFFENLTLDLQPPKSIVDAYVLLNLGDSVTTDHISPAGNIARNSPAARYLTNRGLTPREFNSYGSRRGNDAVMARGTFANIRLLNRFLNKQAPQTIHLPSGEILDVFDAAERYQQAGLPLIVLAGKEYGAGSSRDWAAKGPFLLGIKAVLAESYERIHRSNLVGMGVIPLEYLPGENADALGLTGQERYTIIIPENLKPQMKVQVKLDTGKTFQAVMRFDTDVELTYFLNGGILNYMIRKMAK | binds
elongation of very long-chain fatty acids protein 1 (protein, UniProt Q9BW60 1-279) MEAVVNLYQEVMKHADPRIQGYPLMGSPLLMTSILLTYVYFVLSLGPRIMANRKPFQLRGFMIVYNFSLVALSLYIVYEFLMSGWLSTYTWRCDPVDYSNSPEALRMVRVAWLFLFSKFIELMDTVIFILRKKDGQVTFLHVFHHSVLPWSWWWGVKIAPGGMGSFHAMINSSVHVIMYLYYGLSAFGPVAQPYLWWKKHMTAIQLIQFVLVSLHISQYYFMSSCNYQYPVIIHLIWMYGTIFFMLFSNFWYHSYTKGKRLPRALQQNGAPGIAKVKAN | binds

Target: calcitonin receptor-like receptor (human (endogenous in HDLEC)) (UniProt Q16602)
Assay: as above
Remark: another data set of the same source

binding | Molecule
binds | calcium/calmodulin-dependent protein kinase 2 gamma (from UniProt Q13555 1-558) (enzyme)
binds | BAG cochaperone 2 (from UniProt O95816 1-211)

The remaining lines, values behind:

Molecule | binding
cell division control protein 42 (CDC42) binding protein kinase beta (from UniProt Q9Y5S2 1-1711) (enzyme) | binds
valosin-containing protein (from UniProt P55072 1-806) | binds
cell division control protein 42 (CDC42) binding protein kinase alpha (from UniProt Q5VT25 1-1732) (enzyme) | binds
Protocadherin Fat 1 (from UniProt Q14517 22-4588) | binds
calcium/calmodulin-dependent protein kinase 2 delta (from UniProt Q13557 1-499) (enzyme) | binds
